Measured values taken from paper PMC9532426, “Autophagy induction promoted by m6A reader YTHDF3 through translation upregulation of FOXO3 mRNA”.
No constants are given. Whether binding was seen depends on the method and setting. Binding seen in cells or lysates may run through a third protein. Some binding calls cover weakened binding; strength is not graded here.

Sequences of proteins named here, by UniProt entry; tags and fusion partners are left off.
UniProt P29341: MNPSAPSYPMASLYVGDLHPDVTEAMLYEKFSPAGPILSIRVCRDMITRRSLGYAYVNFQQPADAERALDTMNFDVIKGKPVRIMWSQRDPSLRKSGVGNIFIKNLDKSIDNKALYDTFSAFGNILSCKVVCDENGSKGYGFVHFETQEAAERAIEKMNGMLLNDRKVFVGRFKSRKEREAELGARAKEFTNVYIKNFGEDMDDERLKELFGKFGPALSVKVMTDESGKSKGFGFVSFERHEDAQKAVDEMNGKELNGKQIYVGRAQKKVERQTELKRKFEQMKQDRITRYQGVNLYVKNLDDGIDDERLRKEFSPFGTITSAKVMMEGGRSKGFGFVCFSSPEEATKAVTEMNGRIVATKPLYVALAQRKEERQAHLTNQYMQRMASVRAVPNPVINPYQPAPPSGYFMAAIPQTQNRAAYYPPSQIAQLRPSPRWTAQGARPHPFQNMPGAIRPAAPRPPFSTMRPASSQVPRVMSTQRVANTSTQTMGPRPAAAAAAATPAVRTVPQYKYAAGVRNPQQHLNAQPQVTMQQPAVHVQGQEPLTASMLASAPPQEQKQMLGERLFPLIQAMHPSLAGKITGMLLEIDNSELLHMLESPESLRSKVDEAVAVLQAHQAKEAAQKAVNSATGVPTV
UniProt P23116: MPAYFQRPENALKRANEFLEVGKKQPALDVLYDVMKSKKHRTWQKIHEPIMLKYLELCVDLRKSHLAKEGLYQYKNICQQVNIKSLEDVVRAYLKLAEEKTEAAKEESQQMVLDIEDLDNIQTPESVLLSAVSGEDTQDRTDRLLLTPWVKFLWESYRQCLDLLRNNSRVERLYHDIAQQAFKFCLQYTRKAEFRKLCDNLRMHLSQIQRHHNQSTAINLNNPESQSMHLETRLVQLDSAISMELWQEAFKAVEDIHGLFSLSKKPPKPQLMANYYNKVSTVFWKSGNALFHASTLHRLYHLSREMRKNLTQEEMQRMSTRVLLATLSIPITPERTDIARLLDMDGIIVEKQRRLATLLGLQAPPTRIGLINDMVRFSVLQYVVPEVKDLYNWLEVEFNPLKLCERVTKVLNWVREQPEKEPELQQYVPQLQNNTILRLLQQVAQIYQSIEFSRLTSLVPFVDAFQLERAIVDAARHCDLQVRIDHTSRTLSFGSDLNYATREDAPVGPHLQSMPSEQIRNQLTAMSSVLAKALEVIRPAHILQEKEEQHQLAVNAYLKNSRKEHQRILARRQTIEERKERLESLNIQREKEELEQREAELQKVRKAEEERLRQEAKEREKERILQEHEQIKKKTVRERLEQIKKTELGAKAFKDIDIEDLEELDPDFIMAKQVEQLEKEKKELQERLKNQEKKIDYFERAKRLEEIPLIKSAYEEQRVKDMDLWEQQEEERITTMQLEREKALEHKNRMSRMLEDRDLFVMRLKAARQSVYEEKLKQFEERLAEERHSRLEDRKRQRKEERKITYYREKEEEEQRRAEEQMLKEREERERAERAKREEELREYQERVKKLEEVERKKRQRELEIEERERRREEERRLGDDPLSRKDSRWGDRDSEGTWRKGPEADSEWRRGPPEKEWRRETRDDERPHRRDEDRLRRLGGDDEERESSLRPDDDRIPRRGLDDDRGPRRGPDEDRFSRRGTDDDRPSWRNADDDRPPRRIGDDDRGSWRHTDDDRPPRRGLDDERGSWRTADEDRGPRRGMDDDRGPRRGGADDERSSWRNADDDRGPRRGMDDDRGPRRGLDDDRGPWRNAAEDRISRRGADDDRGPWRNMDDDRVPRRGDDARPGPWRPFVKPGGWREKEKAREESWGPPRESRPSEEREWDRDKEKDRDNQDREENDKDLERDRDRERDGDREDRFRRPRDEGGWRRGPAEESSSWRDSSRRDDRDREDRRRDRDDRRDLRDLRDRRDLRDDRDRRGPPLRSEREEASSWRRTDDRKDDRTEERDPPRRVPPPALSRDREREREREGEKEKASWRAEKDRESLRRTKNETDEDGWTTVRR
UniProt Q8BGD9: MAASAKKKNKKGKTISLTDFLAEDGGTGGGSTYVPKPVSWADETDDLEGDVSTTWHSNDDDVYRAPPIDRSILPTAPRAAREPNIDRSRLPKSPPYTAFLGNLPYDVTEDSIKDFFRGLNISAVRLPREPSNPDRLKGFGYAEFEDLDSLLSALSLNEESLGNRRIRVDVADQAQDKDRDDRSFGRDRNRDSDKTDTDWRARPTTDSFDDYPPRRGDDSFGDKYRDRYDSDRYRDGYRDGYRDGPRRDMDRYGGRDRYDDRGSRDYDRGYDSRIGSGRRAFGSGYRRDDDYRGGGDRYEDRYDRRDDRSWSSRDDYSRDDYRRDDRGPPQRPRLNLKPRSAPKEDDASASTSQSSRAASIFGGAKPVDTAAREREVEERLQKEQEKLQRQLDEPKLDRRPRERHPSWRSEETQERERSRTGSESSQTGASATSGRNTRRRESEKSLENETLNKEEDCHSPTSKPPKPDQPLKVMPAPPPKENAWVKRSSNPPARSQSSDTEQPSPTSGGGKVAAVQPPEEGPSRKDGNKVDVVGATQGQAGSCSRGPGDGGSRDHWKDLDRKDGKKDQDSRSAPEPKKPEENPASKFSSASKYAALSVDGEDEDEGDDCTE

T1: YTHDF3 (mouse (endogenous in MEFs)) (UniProt Q8BYK6)
T1 sequence: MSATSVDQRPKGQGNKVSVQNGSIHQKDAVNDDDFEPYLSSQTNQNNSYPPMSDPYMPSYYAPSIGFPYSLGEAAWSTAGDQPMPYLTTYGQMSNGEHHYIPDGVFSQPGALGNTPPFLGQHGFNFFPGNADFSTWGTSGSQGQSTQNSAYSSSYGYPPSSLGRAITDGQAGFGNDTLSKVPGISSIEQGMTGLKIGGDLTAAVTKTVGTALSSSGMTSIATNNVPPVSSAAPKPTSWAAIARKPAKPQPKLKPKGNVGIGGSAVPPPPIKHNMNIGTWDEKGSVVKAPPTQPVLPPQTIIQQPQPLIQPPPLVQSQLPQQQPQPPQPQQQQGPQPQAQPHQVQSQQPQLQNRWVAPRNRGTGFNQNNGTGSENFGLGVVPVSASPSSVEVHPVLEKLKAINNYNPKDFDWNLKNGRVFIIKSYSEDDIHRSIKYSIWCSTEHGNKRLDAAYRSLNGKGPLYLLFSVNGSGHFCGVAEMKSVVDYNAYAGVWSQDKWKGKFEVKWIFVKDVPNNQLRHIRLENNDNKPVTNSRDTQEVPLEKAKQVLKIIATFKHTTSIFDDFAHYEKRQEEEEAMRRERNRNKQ

T2: eIF4G2 (mouse (endogenous in MEFs)) (UniProt Q62448)
T2 sequence: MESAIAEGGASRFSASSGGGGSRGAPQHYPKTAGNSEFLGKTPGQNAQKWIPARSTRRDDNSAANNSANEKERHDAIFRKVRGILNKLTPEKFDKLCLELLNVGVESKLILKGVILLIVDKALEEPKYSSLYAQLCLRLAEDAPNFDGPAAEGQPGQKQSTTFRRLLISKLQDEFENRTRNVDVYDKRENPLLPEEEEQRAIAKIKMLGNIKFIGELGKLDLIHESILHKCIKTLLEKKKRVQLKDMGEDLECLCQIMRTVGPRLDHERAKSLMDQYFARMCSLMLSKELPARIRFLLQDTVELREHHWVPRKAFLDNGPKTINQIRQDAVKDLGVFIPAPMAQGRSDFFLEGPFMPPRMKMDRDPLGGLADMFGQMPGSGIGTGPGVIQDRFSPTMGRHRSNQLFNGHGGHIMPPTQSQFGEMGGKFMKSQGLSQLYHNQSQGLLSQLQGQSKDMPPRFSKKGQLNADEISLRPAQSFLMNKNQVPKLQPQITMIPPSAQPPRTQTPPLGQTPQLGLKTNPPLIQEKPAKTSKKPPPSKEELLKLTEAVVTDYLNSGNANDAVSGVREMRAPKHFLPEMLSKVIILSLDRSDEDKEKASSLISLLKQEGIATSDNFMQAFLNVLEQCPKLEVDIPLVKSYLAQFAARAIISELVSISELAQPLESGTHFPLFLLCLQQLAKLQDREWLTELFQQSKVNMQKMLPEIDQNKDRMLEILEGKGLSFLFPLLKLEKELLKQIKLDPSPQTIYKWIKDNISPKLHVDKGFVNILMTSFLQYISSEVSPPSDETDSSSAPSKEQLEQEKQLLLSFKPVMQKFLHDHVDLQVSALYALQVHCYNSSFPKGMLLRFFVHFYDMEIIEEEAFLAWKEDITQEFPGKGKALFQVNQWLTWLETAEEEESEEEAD


Legend:
[1] = molecular target: T1, YTHDF3 (mouse (endogenous in MEFs)); assay: co-IP; anti-YTHDF3 antibody (sc-377119) crosslinked to Protein A/G Plus Agarose, lysates of shNS and shYTHDF3 MEFs with or without nutrient deprivation, with or without RNase A added to lysates; immunoblot
[2] = molecular target: PABP1 (mouse (endogenous in MEFs)) (UniProt P29341); assay: co-IP; PABP1- or eIF4G2-immunoprecipitated lysates from MEFs with or without nutrient deprivation; immunoblot for YTHDF3
[3] = molecular target: T2, eIF4G2 (mouse (endogenous in MEFs)); assay: as above

binding [1] | binding [2] | binding [3] | Molecule
binds |  |  | eIF3a (from UniProt P23116 1-1344)
binds |  |  | eIF4B (from UniProt Q8BGD9 1-611)
 | binds | binds | YTHDF3 (protein, UniProt Q8BYK6-1 1-585) MSATSVDQRPKGQGNKVSVQNGSIHQKDAVNDDDFEPYLSSQTNQNNSYPPMSDPYMPSYYAPSIGFPYSLGEAAWSTAGDQPMPYLTTYGQMSNGEHHYIPDGVFSQPGALGNTPPFLGQHGFNFFPGNADFSTWGTSGSQGQSTQNSAYSSSYGYPPSSLGRAITDGQAGFGNDTLSKVPGISSIEQGMTGLKIGGDLTAAVTKTVGTALSSSGMTSIATNNVPPVSSAAPKPTSWAAIARKPAKPQPKLKPKGNVGIGGSAVPPPPIKHNMNIGTWDEKGSVVKAPPTQPVLPPQTIIQQPQPLIQPPPLVQSQLPQQQPQPPQPQQQQGPQPQAQPHQVQSQQPQLQNRWVAPRNRGTGFNQNNGTGSENFGLGVVPVSASPSSVEVHPVLEKLKAINNYNPKDFDWNLKNGRVFIIKSYSEDDIHRSIKYSIWCSTEHGNKRLDAAYRSLNGKGPLYLLFSVNGSGHFCGVAEMKSVVDYNAYAGVWSQDKWKGKFEVKWIFVKDVPNNQLRHIRLENNDNKPVTNSRDTQEVPLEKAKQVLKIIATFKHTTSIFDDFAHYEKRQEEEEAMRRERNRNKQ
